# Data: the supplement of paper PMC10331698
# ± gives the standard deviation of the averaged measurements. Most entries show no effect beyond the scatter of the controls.
# Assays:
# Test in all cases: level (log10 ratio to DMSO vehicle control); higher = higher biomarker level / cell amount than vehicle control
# [1] = compound: NCC(F)(F)C(F)(F)C(F)(F)C(F)(F)C(F)(F)C(F)(F)C(F)(F)F [1H,1H-Perfluorooctylamine]; conditions: 2200 nM; in DMSO
# Protocol: (§1)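 BioMAP Diversity Plus panel of 12 human primary cell co-culture systems (3C, 4H, LPS, SAg, BT, BF4T, BE3C, CASM3C, HDF3CGF, KF3CT, MyoF, Mphg). Compounds were added 1 h before stimulation and left for 24 h (MyoF 48 h; BT 72 h for soluble read-outs or 6 d for IgG). Biomarkers were read by ELISA, cytotoxicity by SRB, PBMC viability and proliferation by Alamar Blue. Each well value was divided by the mean of 8 DMSO control wells on the same plate and log10 transformed; duplicate blinded samples were tested at 4 concentrations.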
# [2] = compound: OCCC(F)(F)C(F)(F)C(F)(F)C(F)(F)C(F)(F)C(F)(F)F [6:2 Fluorotelomer alcohol]; conditions: 2200 nM; in DMSO
# Protocol: as §1
# [3] = compound: Cc1ccc(S(=O)(=O)OCC(F)(F)C(F)(F)C(F)(F)C(F)(F)C(F)(F)C(F)F)cc1 [1H,1H,7H-Perfluoroheptyl 4-methylbenzenesulfonate]; conditions: 2200 nM; in DMSO
# Protocol: as §1
# [4] = compound: O=C(O)C(F)(F)C(F)(F)C(F)(F)OC(F)(F)F [Perfluoro(4-methoxybutanoic) acid]; conditions: 2200 nM; in DMSO
# Protocol: as §1
# [5] = compound: CN(C(=O)C(F)(F)C(F)(F)C(F)(F)F)[Si](C)(C)C [N-Methyl-N-trimethylsilylheptafluorobutyramide]; conditions: 2200 nM; in DMSO
# Protocol: as §1
# Perfluoropentanoic acid = compound: O=C(O)C(F)(F)C(F)(F)C(F)(F)C(F)(F)F [Perfluoropentanoic acid]; conditions: in DMSO
# Protocol: as §1
# [6] = compound: FC(F)(F)C(F)(F)C(F)(F)C(F)(F)C(F)(F)C(F)(F)CC1CO1 [3-(Perfluorohexyl)-1,2-epoxypropane]; conditions: 2200 nM; in DMSO
# Protocol: as §1
# 1H,1H-Heptafluorobutanol = compound: OCC(F)(F)C(F)(F)C(F)(F)F [1H,1H-Heptafluorobutanol]; conditions: 2200 nM; in DMSO
# Protocol: as §1
# [7] = compound: O=S(=O)(O)CCC(F)(F)C(F)(F)C(F)(F)C(F)(F)C(F)(F)C(F)(F)C(F)(F)C(F)(F)F [8:2 Fluorotelomer sulfonic acid]; conditions: in DMSO
# Protocol: as §1
# [8] = compound: CC(C)(C)C(=O)CC(=O)C(F)(F)C(F)(F)C(F)(F)F [(Heptafluorobutanoyl)pivaloylmethane]; conditions: 2200 nM; in DMSO
# Protocol: as §1
# Perfluoroheptanoic acid = compound: O=C(O)C(F)(F)C(F)(F)C(F)(F)C(F)(F)C(F)(F)C(F)(F)F [Perfluoroheptanoic acid]; conditions: in DMSO
# Protocol: as §1
# Heptafluorobutyramide = compound: NC(=O)C(F)(F)C(F)(F)C(F)(F)F [Heptafluorobutyramide]; conditions: 2200 nM; in DMSO
# Protocol: as §1
# Octafluoroadipic acid = compound: O=C(O)C(F)(F)C(F)(F)C(F)(F)C(F)(F)C(=O)O [Octafluoroadipic acid]; conditions: 2200 nM; in DMSO
# Protocol: as §1
# [9] = compound: O=C(O)C(F)(F)C(F)(F)C(F)(F)C(F)(F)C(F)(F)C(F)(F)C(F)(F)C(F)(F)C(F)(F)C(F)F [11-H-Perfluoroundecanoic acid]; conditions: 2200 nM; in DMSO
# Protocol: as §1
# [10] = compound: CCN(CCO)S(=O)(=O)C(F)(F)C(F)(F)C(F)(F)C(F)(F)C(F)(F)C(F)(F)C(F)(F)C(F)(F)F [N-Ethyl-N-(2-hydroxyethyl)perfluorooctanesulfonamide]; conditions: in DMSO
# Protocol: as §1
# 1-(Perfluorohexyl)octane = compound: CCCCCCCCC(F)(F)C(F)(F)C(F)(F)C(F)(F)C(F)(F)C(F)(F)F [1-(Perfluorohexyl)octane]; conditions: in DMSO
# Protocol: as §1
test system,measurement,setting,value
lMphg:SRB-Mphg,level (log10),[1],-0.005 ± 0.011
same,level (log10),[2],0.0055 ± 0.042
same,level (log10),[3],0.022 ± 0.013
same,level (log10),[4],0.014 ± 0.017
same,level (log10),[5],0.0275 ± 0.021
same,level (log10),Perfluoropentanoic acid; 2200 nM,0.003 ± 0.047
same,level (log10),Perfluoropentanoic acid; 6700 nM,-0.0125 ± 0.022
same,level (log10),Perfluoropentanoic acid; 20000 nM,0.001 ± 0.0071
same,level (log10),Perfluoropentanoic acid; 60000 nM,0.006 ± 0.017
same,level (log10),[6],0.0105 ± 0.015
same,level (log10),"1H,1H-Heptafluorobutanol",0.02 ± 0.023
same,level (log10),[7]; 2200 nM,0.006 ± 0.028
same,level (log10),[7]; 6700 nM,0.003 ± 0.0028
same,level (log10),[7]; 20000 nM,-0.012 ± 0.014
same,level (log10),[7]; 60000 nM,-0.027 ± 0.013
same,level (log10),[8],0.0055 ± 0.029
same,level (log10),Perfluoroheptanoic acid; 2200 nM,0.009 ± 0.013
same,level (log10),Perfluoroheptanoic acid; 6700 nM,-0.003 ± 0.014
same,level (log10),Perfluoroheptanoic acid; 20000 nM,0.005 ± 0.0071
same,level (log10),Perfluoroheptanoic acid; 60000 nM,0.004 ± 0.0042
same,level (log10),Heptafluorobutyramide,-0.0095 ± 0.015
same,level (log10),Octafluoroadipic acid,0.005 ± 0.0057
same,level (log10),[9],0.006 ± 0.0014
same,level (log10),[10]; 2200 nM,0.002 ± 0.018
same,level (log10),[10]; 6700 nM,0.0095 ± 0.00071
same,level (log10),[10]; 20000 nM,0.001 ± 0.021
same,level (log10),1-(Perfluorohexyl)octane; 740 nM,0.0405 ± 0.011
same,level (log10),1-(Perfluorohexyl)octane; 2200 nM,-0.0075 ± 0.028
lMphg:sIL-10,level (log10),[1],-0.0555 ± 0.074
same,level (log10),[2],-0.05 ± 0.082
same,level (log10),[3],-0.079 ± 0.068
same,level (log10),[4],0.0415 ± 0.023
same,level (log10),[5],-0.001 ± 0.045
same,level (log10),Perfluoropentanoic acid; 2200 nM,0.02 ± 0.03
same,level (log10),Perfluoropentanoic acid; 6700 nM,-0.017 ± 0.013
same,level (log10),Perfluoropentanoic acid; 20000 nM,-0.075 ± 0.025
same,level (log10),Perfluoropentanoic acid; 60000 nM,-0.0845 ± 0.05
same,level (log10),[6],-0.0195 ± 0.074
same,level (log10),"1H,1H-Heptafluorobutanol",-0.0115 ± 0.069
same,level (log10),[7]; 2200 nM,-0.0705 ± 0.12
same,level (log10),[7]; 6700 nM,-0.078 ± 0.024
same,level (log10),[7]; 20000 nM,-0.216 ± 0.0057
same,level (log10),[7]; 60000 nM,-0.6535 ± 0.0064
same,level (log10),[8],-0.0375 ± 0.097
same,level (log10),Perfluoroheptanoic acid; 2200 nM,-0.0045 ± 0.0035
same,level (log10),Perfluoroheptanoic acid; 6700 nM,-0.017 ± 0.018
same,level (log10),Perfluoroheptanoic acid; 20000 nM,0.007 ± 0.027
same,level (log10),Perfluoroheptanoic acid; 60000 nM,-0.0945 ± 0.032
same,level (log10),Heptafluorobutyramide,-0.025 ± 0.071
same,level (log10),Octafluoroadipic acid,-0.042 ± 0.052
same,level (log10),[9],-0.0895 ± 0.035
same,level (log10),[10]; 2200 nM,-0.0075 ± 0.03
same,level (log10),[10]; 6700 nM,0 ± 0.024
same,level (log10),[10]; 20000 nM,-0.0505 ± 0.028
same,level (log10),1-(Perfluorohexyl)octane; 740 nM,0.021 ± 0.072
same,level (log10),1-(Perfluorohexyl)octane; 2200 nM,0.005 ± 0.075

# Rewritten as tab-separated lines: part of the list above
test system	measurement	setting	value
lMphg:sIL-10	level (log10)	[9]	-0.0895 ± 0.035
same	level (log10)	[10]; 2200 nM	-0.0075 ± 0.03
same	level (log10)	[10]; 6700 nM	0 ± 0.024
